Measurements from PMC7948500, “Comparative interactomes of HSF1 in stress and disease reveal a role for CTCF in HSF1-mediated gene regulation” (The Journal of Biological Chemistry, 2020).
These are yes or no findings as the source states them, for the method shown. Binding seen in cells or lysates may run through a third protein. A yes stands for co-enrichment or nearness to the bait. Other partners may have been found. Tags and fused reporters may be left off the sequences shown. Blank lines part the entries; values can stand above or below the binder they belong to.

The chains behind the UniProt entries cited, without tags or fusion partners.
UniProt P38532: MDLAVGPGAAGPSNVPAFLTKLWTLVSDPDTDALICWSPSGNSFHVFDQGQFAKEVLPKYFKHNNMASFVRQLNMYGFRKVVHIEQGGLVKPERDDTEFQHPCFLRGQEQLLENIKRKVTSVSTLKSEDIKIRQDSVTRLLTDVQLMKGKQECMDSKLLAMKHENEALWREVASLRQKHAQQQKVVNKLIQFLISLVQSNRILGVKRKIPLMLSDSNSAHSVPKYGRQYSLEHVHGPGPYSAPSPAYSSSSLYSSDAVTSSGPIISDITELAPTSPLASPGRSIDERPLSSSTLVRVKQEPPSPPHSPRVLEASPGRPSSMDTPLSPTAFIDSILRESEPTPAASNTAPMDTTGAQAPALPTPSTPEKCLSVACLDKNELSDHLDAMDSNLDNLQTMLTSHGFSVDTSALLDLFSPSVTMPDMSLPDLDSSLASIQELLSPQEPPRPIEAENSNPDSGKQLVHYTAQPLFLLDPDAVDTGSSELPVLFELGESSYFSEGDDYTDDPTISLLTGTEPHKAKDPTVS

Biological target: heat shock transcription factor 1 (endogenous, mouse striatal cells) (mouse (endogenous in STHdh striatal cells)) (UniProt P38532)
Test: affinity purification with mass spectrometry; endogenous untagged HSF1 immunoprecipitated with polyclonal anti-HSF1 covalently linked to DynaG beads from STHdh Q7 (control), Q7 heat shock (42 °C, 30 min) and Q111 (HD) lysates, no cross-linker; IgG IP as control; hits at least twofold over IgG, p < 0.05, ProteinTeller probability >= 0.8; quantitative LC-MS/MS

binding: binds
B2: nuclear export mediator factor (protein, UniProt Q8CCP0 1-1064)
chain: MKSRFSTVDLRAVLAELNASLLGMRVNNVYDVDNKTYLIRLQKPDFKATLLLESGIRIHTTEFEWPKNMMPSSFAMKCRKHLKSRRLVSAKQLGVDRIVDFQFGSDEAAYHLIIELYDRGNIVLTDYEYLILNILRFRTDEADDVKFAVRERYPIDHARAAEPLLTLERLTEVIAAAPKGEVLKRVLNPLLPYGPALIEHCLIESGFSGNAKVDEKLESKDIEKILVCVQRAEDYLRKTSNFNGKGYIIQKREAKPSLDADKPAEDILTYEEFHPFLFSQHLQCPYIEFESFDKAVDEFYSKIEGQKIDLKALQQEKQALKKLDNVRKDHENRLEALQQAQEIDKLKGELIEMNLQIVDRAIQVVRSALANQIDWTEIGVIVKEAQAQGDPVACAIKELKLQTNHVTMLLRNPYLLSEEEDGDGDASIENSDAEAPKGKKKKQKNKQLQKPQKNKPLLVDVDLSLSAYANAKKYYDHKRYAAKKTQRTVEAAEKAFKSAEKKTKQTLKEVQTVTSIQKARKVYWFEKFLWFISSENYLIIGGRDQQQNEIIVKRYLTPGDIYVHADLHGATSCVIKNPTGEPIPPRTLTEAGTMALCYSAAWDARVITSAWWVYHHQVSKTAPTGEYLTTGSFMIRGKKNFLPPSYLMMGFSFLFKVDESCVWRHRGERKVRVQDEDMETLTSCTSELMAEEMEQLEGGDSSEEETEELHGMPGDVELMTQVDQEDIAVHSGRDELSSEDGEAKAVTKDQEPIGEMKEEEEDTFEYPDTTIDLSHLQSQRPLQKLAPREESLNSNDSKSQGRRHLSAKERREMKKKKLPCESGDLEVIEEKDKERESAVHTEAYQNTSKNVAAGQPMKRGQKSKMKKMKEKYKDQDDEDRELIMKLLASAGSNKEEKGKKGKKGKPKDEPVKKPPQKPRGGQRVLDVVKEPPSLQVLAHDLQDLAVDDPHDDKEEHDLDQQGNEENLFDSLTGQPHPEDVLMFAIPICAPYTIMTNYKYKVKLTPGVQKKGKAAKTALNSFMHSKEATAREKDLFRSVKDTDLSRNIPGKVKVSAPNLLHVKRK

binding: binds
B4: CCCTC-binding factor (endogenous, mouse striatal cells) (protein, UniProt Q61164 1-736)
chain: MEGEAVEAIVEESETFIKGKERKTYQRRREGGQEEDACHLPQNQTDGGEVVQDVNSSVQMVMMEQLDPTLLQMKTEVMEGTVAPEAEAAVDDTQIITLQVVNMEEQPINIGELQLVQVPVPVTVPVATTSVEELQGAYENEVSKEGLAESEPMICHTLPLPEGFQVVKVGANGEVETLEQGELPPQEDSSWQKDPDYQPPAKKTKKTKKSKLRYTEEGKDVDVSVYDFEEEQQEGLLSEVNAEKVVGNMKPPKPTKIKKKGVKKTFQCELCSYTCPRRSNLDRHMKSHTDERPHKCHLCGRAFRTVTLLRNHLNTHTGTRPHKCPDCDMAFVTSGELVRHRRYKHTHEKPFKCSMCDYASVEVSKLKRHIRSHTGERPFQCSLCSYASRDTYKLKRHMRTHSGEKPYECYICHARFTQSGTMKMHILQKHTENVAKFHCPHCDTVIARKSDLGVHLRKQHSYIEQGKKCRYCDAVFHERYALIQHQKSHKNEKRFKCDQCDYACRQERHMIMHKRTHTGEKPYACSHCDKTFRQKQLLDMHFKRYHDPNFVPAAFVCSKCGKTFTRRNTMARHADNCAGPDGVEGENGGETKKSKRGRKRKMRSKKEDSSDSEENAEPDLDDNEEEEEPAVEIEPEPEPQPQPPPPPQPVAPAPPPAKKRRGRPPGRTNQPKQNQPTAIIQVEDQNTGAIENIIVEVKKEPDAEPAEGEEEEAQAATTDAPNGDLTPEMILSMMDR

binding: binds
B5: histone demethylase NO66 (protein, UniProt Q9JJF3 1-603)
chain: MDELPNGNGAALLKRGRGRRRRHPQSQPRGASVLALPLRPRKIRRHRKSAAASRVAALRARALRSEDSDSKVAVASVRGKRKRPAELLEASRSAEPRPVSARPRSASATLPSRVEGWAALSRNLGTAAPPPPGSHADEPGRPRASPLQQVLTELNGIPSSRRRAARLFEWLLAPLPPDHFYRRLWEREAVLVRRQDRSYYEGLFSTADLDSMLRYEDVQFGQHLDAARYVDGRRETLNPPGRALPAAAWSLYRAGCSLRLLCPQAFSPTVWQFLAVLQEQFGSMAGSNVYLTPPDSQGFAPHYDDIEAFVLQLEGRKLWRVYRPRDPSEELALTSSPNFSQEDLGEPVLQTVLEPGDLLYFPRGFIHQAECQDGVHSLHLTLSTYQRNTWGDFLEAVLPLAVQAAIEENVEFRRGLPRDFMDYMGAQHSDSKDPRRTAFMEKVRVLVARLGHFAPVDAVADQRAKDFIHDSLPPVLTDRERALSVHGLPVRWEAGEPVNVGAQLTTETQVHMLQDGVARLVGEGGRLFLYHTVENSRVYHLEEPKCLEIHPQQADAMELLLRSYPEFVRVGDLPCDSVEDQLSLATMLYDKGLLLTKTPLVPS

binding: binds
B6: NFX1 (protein, UniProt B1AY10 1-1114)
chain: MAEAPPVSGTFKFNTDAAEFIPQERKTSGLNCGTQRRLDSSRIGRRNYSSSPPCHLPRHIPYEDISAVHQHSYASGSKPKSPQGFFQSSNKSLKNHGLQNQPWQKARNEKHQNRNKKAQGLSEQTSDTSSLESVARSESGTNPREHSPSESEKEVVIADPRGAKPKKAAQLTYNYGRGPKAKGRLRSEWGNRMSPKSEDENTRPVAISHTDSSDASCRKPVVDPCVCRRNEQRRYPQKRPPWEVEGARPRPGRNPPKQESQRHINAGPKTNMSPIPKDNLRERPTKSACDTGNLAVVSKSSRRVNQEKTAVRRQDPQVLSPFPRGKQNHMLKNVETHTGSLIEQLTTEKYECMVCCELVQVTAPVWSCQSCFHVFHLNCIKKWARSPASHADGQSGWRCPACQNVSAHVPNTYTCFCGKVKNPEWSRNEIPHSCGEVCRKKQPGQDCPHSCNLLCHPGPCPPCPAFTTKTCECGRTRHTVRCGQPVSVHCSNACENILNCGQHHCAELCHGGQCQPCRIILNQVCYCGSTSRDVLCGTDVGKSDGFGDFSCLKICGKDLKCGSHTCSQVCHPQPCQPCPRLPHLVRYCPCGQTPLSQLLEHGSNARKTCMDPVPSCGKVCGKPLACGSSDFIHTCEKLCHEGDCGPCSRTSVISCRCSFRTKELPCTSLKSEDATFMCDKRCNKKRLCGRHKCNEICCVDKEHKCPLICGRKLRCGLHRCEEPCHRGNCQTCWQASFDELTCHCGASVIYPPVPCGTRPPECTQTCARIHECDHPVYHSCHSEEKCPPCTFLTQKWCMGKHELRSNIPCHLVDISCGLPCSAMLPCGMHKCQRLCHKGECLVDEACKQPCTTPRGDCGHPCMAPCHPSLPCPVTACKAKVELQCECGRRKEMVICSEASGTYQRIVAISMASKITDMQLGDSVEISKLITKKEVQQARLQCDEECAALERRKRLAEAFDITDDSDPFNVRSSASKFSDSLKDDARKDLKFVSDVEKEMETLVEAVNKGKNNKKSHCFPPMNRDHRRIIHDLAQVYGLESISYDSEPKRNVVVTAVRGKSVCPPTTLTSVIERETQTRPPPPIPHHRHQADKAPGSSTLQKIVKEAVIDYFDVQD

Second part, the binder before the results:

B1: PRP17 (protein, UniProt Q9DC48 1-579)
chain: MSAAIAALAASYGSGSGSESDSDSEGSRCPLPAADSLMHLTKSPSAKLSLTVAVDSAPEVAVKEDLETGVHLDPAVKEVQYNPTYETMFAPEFGPENPFRTQQMAAPRNMLSGYAEPAHINDFMFEQQRRTFATYGYALDPSLDNHQVSAKYIGSVEEAEKNQGLTVFETGQKKTEKRKKFKENDASNIDGFLGPWAKYVDEKDVAKPSEEEQKELDEITAKRQKKGKQEEEKPGEEKTILHVKEMYDYQGRSYLHIPQDVGVNLRSSVPPEKCYLPKKQIHVWSGHTKGVSAVRLFPLSGHLLLSCSMDCKIKLWEVYGDRRCLRTFIGHSKAVRDICFNTAGTQFLSAAYDRYLKLWDTETGQCISRFTNRKVPYCVKFNPDEDKQNLFVAGMSDKKIVQWDIRSGEIVQEYDRHLGAVNTIVFVDENRRFVSTSDDKSLRVWEWDIPVDFKYIAEPSMHSMPAVTLSPNGKWLACQSMDNQILIFGAQNRFRLNKKKIFKGHMVAGYACQVDFSPDMSYVISGDGNGKLNIWDWKTTKLYSRFKAHDKVCIGAVWHPHETSKVITCGWDGLIKLWD
binding: binds

B3: PSD13 (protein, UniProt Q9WVJ2 1-376)
chain: MKDVPAFLQQSQSSGPGQAAVWHRLEELYTKKLWHQLTLEVLDFVQDPCFAQGDGLIKLYENFISEFEHRVNPLSLVEIILHVVRQMTDPNVALTFLEKTREKVKSSDEAVILCKTAIGALKLNIGDLQATKETIEDVEEMLNNLPGVTSVHSRFYDLSSKYYQTIGNHASYYKDALRFLGCVDIKDLPVSEQQERAFTLGLAGLLGEGVFNFGELLMHPVLESLRDTDRQWLIDTLYAFNSGAVDRFQTLKCAWGQQPDLAANEAQLLRKIQLLCLMEMTFTRPANHRQLTFEEIAKSAKITVNKVELLVMKALSVGLVRGSIDEVDKRVHMTWVQPRVLDLQQIKGMKDRLELWCTDVKSMEMLVEHQAQDILT
binding: binds

B7: PSD12 (protein, UniProt Q9D8W5 1-456)
chain: MADGGSERADGRIVKMEVDYSATVDQRLPECEKLAKEGRLQEVIETLLSLEKQTRTASDMVSTSRILVAVVKMCYEAKEWDLLNENIMLLSKRRSQLKQAVAKMVQQCCTYVEEITDLPVKLRLIDTLRMVTEGKIYVEIERARLTKTLATIKEQNGDVKEAASILQELQVETYGSMEKKERVEFILEQMRLCLAVKDYIRTQIISKKINTKFFQEENTENLKLKYYNLMIQLDQHEGSYLSICKHYRAIYDTPCIQAESDKWQQALKSVVLYVILAPFDNEQSDLVHRISSDKKLEEIPKYKDLLKLFTTMELMRWSTLVEDYGVELRKGSSETPATDVFSSTEEGEKRWKDLKSRVVEHNIRIMAKYYTRITMKRMAQLLDLSVDESEAFLSNLVVNKTIFAKVDRLAGVINFQRPKDPNNLLNDWSQKLNSLMSLVNKTTHLIAKEEMIHNLQ
binding: binds

B8: serine threonine kinase (STK3) (protein, UniProt Q9JI10 1-497)
chain: MEQPPASKSKLKKLSEDSLTKQPEEVFDVLEKLGEGSYGSVFKAIHKESGQVVAIKQVPVESDLQEIIKEISIMQQCDSPYVVKYYGSYFKNTDLWIVMEYCGAGSVSDIIRLRNKTLTEDEIATILKSTLKGLEYLHFMRKIHRDIKAGNILLNTEGHAKLADFGVAGQLTDTMAKRNTVIGTPFWMAPEVIQEIGYNCVADIWSLGITSIEMAEGKPPYADIHPMRAIFMIPTNPPPTFRKPELWSDDFTDFVKKCLVKSPEQRATATQLLQHPFIKNAKPVSILRDLIAEAMEIKAKRHEEQQRELEEEEENSDEDELDSHTMVKTSSESVGTMRATSTMSEGAQTMIEHNSTMLESDLGTMVINSEEEEEEEEEEEEDGTMKRNATSPQVQRPSFMDYFDKQDFKNKSHENCDQSMREPGPMSNSVFPDNWRVPQDGDFDFLKNLSLEELQMRLKALDPMMEREIEELHQRYSAKRQPILDAMDAKKRRQQNF
binding: binds
